Reference: PubChem BioAssay AID1671190 (National Center for Advancing Translational Sciences (NCATS), 2021)
About 6,100 (1.1%) of roughly 580,000 compounds were called active. Inconclusive results, whose numbers are uncertain, are shown with a selection of clear calls. Calls follow the shape of the dose curve; as a rule, active = well fitted inhibition curve with a large enough effect; inconclusive = small, poorly fitted or top-dose-only effect, or another doubt; inactive = no such curve, though single readings can be large or run the other way. Potencies beside an inconclusive call are fits to weak or partial responses and may not hold up.

By UniProt entry, the sequences of proteins in these tests, tags left out.
UniProt P18054, whole entry, looked up: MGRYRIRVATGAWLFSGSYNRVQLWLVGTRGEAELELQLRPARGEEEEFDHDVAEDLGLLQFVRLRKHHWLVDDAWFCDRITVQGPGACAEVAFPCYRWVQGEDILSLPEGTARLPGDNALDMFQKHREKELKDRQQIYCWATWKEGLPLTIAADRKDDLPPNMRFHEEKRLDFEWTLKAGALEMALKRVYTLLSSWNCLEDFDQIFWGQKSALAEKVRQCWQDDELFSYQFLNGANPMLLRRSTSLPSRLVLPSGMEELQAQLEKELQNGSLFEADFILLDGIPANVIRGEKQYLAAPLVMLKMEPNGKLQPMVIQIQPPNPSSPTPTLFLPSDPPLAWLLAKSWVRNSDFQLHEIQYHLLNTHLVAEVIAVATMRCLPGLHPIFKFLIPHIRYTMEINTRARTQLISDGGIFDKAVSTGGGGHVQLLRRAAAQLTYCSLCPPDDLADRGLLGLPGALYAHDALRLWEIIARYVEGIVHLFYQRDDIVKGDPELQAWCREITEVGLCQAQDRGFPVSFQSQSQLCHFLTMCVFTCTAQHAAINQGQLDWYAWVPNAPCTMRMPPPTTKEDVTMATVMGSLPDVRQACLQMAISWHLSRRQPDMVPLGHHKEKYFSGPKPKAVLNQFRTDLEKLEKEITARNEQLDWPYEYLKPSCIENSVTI

These compounds were tested against Polyunsaturated fatty acid lipoxygenase ALOX12 (Homo sapiens) (UniProt P18054) (assay: Primary qHTS assay for inhibitors of human arachidonate 12S-lipoxygenase (ALOX12): Round 2). Settings: purified 12hLO, xylenol orange hydroperoxide absorbance; activity change, negative = inhibition: at 108 µM (top of the series) unless noted.
How it was run: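 Purified human 12hLO at 150 nM in 25 mM Hepes, 0.01% Triton X-100, pH 7.0, preincubated 15 min at room temperature with compound. Reaction started with 40 uM arachidonic acid, 30 min at room temperature. Hydroperoxide measured by Fe-xylenol orange, 573/405 nm absorbance ratio.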
% is scaled to controls: 0 for no effect and ±100 for the full control effect; potency is read from the fitted curve at half-maximal effect.

Q: How did the Potency turn out when `O=C(c1n[nH]c(=O)c2ccccc12)N1CCN(c2ccccc2Cl)CC1` was run?
A: Its Potency is inconclusive: 35.5 µM [inhibitor, partial curve].

Q: `Cc1cccc(OCC(O)CN(Cc2ccccc2)Cc2ccccc2)c1` (stereo unspecified) was tested. Which Potency did it give?
A: The Potency was inconclusive: 28.2 µM [inhibitor, partial curve, poor fit].

Q: `O=C1CCCC/C1=C/Nc1cccc(C(F)(F)F)c1` was tested. Which “activity change, negative = inhibition” value did it give?
A: Its value is inactive: -13.2%.

Q: How did the Potency turn out when `CCOCCCNC(=O)c1cc(-c2cccs2)nc2ccccc12` was run?
A: The Potency was inconclusive: 44.7 µM [inhibitor, single point].

Q: For `C[C@H](CO)N1C[C@H](C)[C@@H](CN(C)S(=O)(=O)c2cccs2)Oc2ccc(NC(=O)Nc3ccc4c(c3)OCO4)cc2C1=O`, which Potency is on record?
A: Its Potency is inconclusive: 25.1 µM [inhibitor, single point].

Q: For `CC(C)(CNC(=O)COc1ccccc1Cc1ccccc1)N1CCOCC1`, which Potency is on record?
A: Its Potency is inconclusive: 79.4 µM [inhibitor, single point].

Q: With `O=C(O)c1ccc(-c2cc3ccccc3oc2=O)cc1` as the compound, how does the Potency read?
A: The Potency was inconclusive: 50.1 µM [inhibitor, partial curve, poor fit].

Q: How did the “activity change, negative = inhibition” value turn out when `CC(C)c1noc(-c2cccn3c(CNC(=O)c4ccccn4)nnc23)n1` was run?
A: Its value is inactive: 80.3%.

Q: Which “activity change, negative = inhibition” value does the source give for `Cc1cc(C)c(-c2csc(NC(=O)C3=COCCO3)n2)c(C)c1` here?
A: The value was inactive: 0.299%.

Q: How did the Potency turn out when `CCOC(=O)[C@]12CCCC=C1N(CCc1ccc(OC)c(OC)c1)C(=O)[C@H](CC(=O)N1CCCC1)C2` was run?
A: Its Potency is inconclusive: 112 µM [inhibitor, single point].

Q: Which “activity change, negative = inhibition” value does the source give for `Nc1c([N+](=O)[O-])c(=O)sc2ccccc12` here?
A: Its value is inactive: -12.9%.

Q: Which “activity change, negative = inhibition” value does the source give for `COc1ccc(-c2cn3nc(N4CCCC(C(=O)NCc5ccccn5)C4)sc3n2)cc1` (stereo unspecified) here?
A: Its value is inactive: 16.8%.

Q: With `O=C(O)c1cccnc1Sc1ccc(F)cc1` as the compound, how does the “activity change, negative = inhibition” value read?
A: The value was inactive: -4.46%.

Q: How did the Potency turn out when `OCCNC(=S)Nc1cccc(Cl)c1Cl` was run?
A: The Potency was inconclusive: 89.1 µM [inhibitor, partial curve, poor fit].

Q: Which “activity change, negative = inhibition” value does the source give for `O=C(NCCOCCO)C(=O)Nc1c2c(nn1-c1ccc(F)cc1)CSC2` here?
A: Its value is inactive: -0.401%.

Q: Which Potency does the source give for `[O-]/[N+](=C\c1ccc(F)cc1)c1ccccc1` here?
A: The Potency was inconclusive: 50.1 µM [inhibitor, partial curve, poor fit].

Q: With `CC(C)c1ccc(-c2nc3cc(N)ccc3o2)cc1` as the compound, how does the Potency read?
A: Its Potency is inconclusive: 70.8 µM [inhibitor, partial curve, poor fit].

Q: `Cn1nc(C(=O)N2CCC(Cc3nc(C4CC4)n[nH]3)C2)c2ccccc21` (stereo unspecified) was tested. Which “activity change, negative = inhibition” value did it give?
A: Its value is inactive: 22.7%.

Q: Which “activity change, negative = inhibition” value does the source give for `CC1CCCCN1C(=O)CSc1nnc(-c2ccco2)o1` (stereo unspecified) here?
A: Its value is inactive: -8.02%.

Q: For `CSc1ccc(/C=N/Nc2ccc(F)cc2)cc1`, which Potency is on record?
A: Its Potency is active: 1.26 µM.

Q: With `CN(C(=O)NC1CCCCC1)[C@H]1C[C@H]2c3[nH]c4ccccc4c3CCN2C(=O)[C@H]1CO` as the compound, how does the Potency read?
A: Its Potency is inconclusive: 11.2 µM [inhibitor, partial curve, poor fit].

Q: With `Cc1ccc(C(=O)CCC(=O)N2CCC(C(N)=O)CC2)cc1` as the compound, how does the Potency read?
A: Its Potency is inconclusive: 44.7 µM [inhibitor, partial curve, poor fit].

Q: `COc1cc(Cl)c(C)cc1-n1cc(C(=O)c2cc(C)ccc2O)cc(C#N)c1=O` was tested. Which Potency did it give?
A: The Potency was inconclusive: 28.2 µM [inhibitor, single point].

Q: For `CCC(Oc1ccccc1)C(=O)Nc1ccc2oc(C)nc2c1` (stereo unspecified), which “activity change, negative = inhibition” value is on record?
A: The value was inactive: -7.25%.

Q: For `O=C(c1ccc(C(F)(F)F)cc1)N1CCCC2(CC(c3ccccc3)=NO2)C1` (stereo unspecified), which Potency is on record?
A: Its Potency is inconclusive: 44.7 µM [inhibitor, partial curve].

Q: With `Cc1cc(Cl)ccc1NC(=O)C1CN(S(C)(=O)=O)CC12CCCCC2` (stereo unspecified) as the compound, how does the “activity change, negative = inhibition” value read?
A: The value was inactive: 1.4%.

Q: With `COc1ccc(C(=O)Cn2cc([N+](=O)[O-])nc2C)cc1` as the compound, how does the “activity change, negative = inhibition” value read?
A: The value was inactive: 6.59%.

Q: How did the Potency turn out when `C=CCOc1cccc(C2C(C(=O)c3ccco3)=C(O)C(=O)N2Cc2ccncc2)c1` (stereo unspecified) was run?
A: Its Potency is inconclusive: 31.6 µM [inhibitor, single point].

Q: For `Cc1ccc(C(=O)N2CCCC2)cc1S(=O)(=O)N1CCCCC1`, which Potency is on record?
A: The Potency was inconclusive: 126 µM [inhibitor, partial curve, poor fit].

Q: Which Potency does the source give for `CCOc1cc(/C=C2/NC(=O)NC2=O)cc(I)c1OCc1ccc(C(=O)O)cc1` here?
A: The Potency was inconclusive: 35.5 µM [inhibitor, partial curve, poor fit].

Q: `COCCN(Cc1ccccc1)C(=O)c1cc(S(=O)(=O)N2CCCCCC2)ccc1OC` was tested. Which “activity change, negative = inhibition” value did it give?
A: The value was inactive: 10.8%.

Q: Which Potency does the source give for `CCN1CCN(S(=O)(=O)c2ccc(C(C)(C)C)cc2)CC1` here?
A: The Potency was inconclusive: 17.8 µM [inhibitor, partial curve].

Q: `O=C(NCCn1cc(SCc2cccc(F)c2)c2ccccc21)c1cccc(C(F)(F)F)c1` was tested. Which Potency did it give?
A: Its Potency is inconclusive: 56.2 µM [inhibitor, partial curve].

Q: How did the “activity change, negative = inhibition” value turn out when `O=C(COC(=O)CCc1nc2ccccc2c(=O)[nH]1)Nc1ccccc1OC(F)F` was run?
A: The value was inactive: -7.56%.

Q: How did the Potency turn out when `CC(C)OC(=O)c1cc(NC(=S)Nc2ccc([N+](=O)[O-])cc2)cc(C(=O)OC(C)C)c1` was run?
A: The Potency was inconclusive: 50.1 µM [inhibitor, partial curve, poor fit].

Q: Which “activity change, negative = inhibition” value does the source give for `CCCSc1nnc(NC(=O)CCc2ccccc2)s1` here?
A: Its value is inactive: 0.943%.

Q: Which Potency does the source give for `Cc1cc(C)nc(Nc2ccc(N3CCCC3)cc2)n1` here?
A: The Potency was inconclusive: 89.1 µM [inhibitor, single point].

Q: For `CC1(C(=O)O)CCC(C(=O)NNC(=O)c2ccccc2Cl)C1(C)C` (stereo unspecified), which Potency is on record?
A: Its Potency is inconclusive: 89.1 µM [inhibitor, partial curve, poor fit].

Q: Which “activity change, negative = inhibition” value does the source give for `COc1ccc(/C=C/C(=O)NCc2cccnc2)cc1` here?
A: Its value is inactive: -4.55%.

Q: `O=C(O)C1Cc2nc[nH]c2CN1C(=O)CCc1cn2ccccc2n1` (stereo unspecified) was tested. Which Potency did it give?
A: Its Potency is inconclusive: 28.2 µM [inhibitor, partial curve].

Q: For `O=C(COC(=O)/C=C/c1ccc2ccccc2n1)NNC(=O)c1ccccc1`, which Potency is on record?
A: Its Potency is inconclusive: 44.7 µM [inhibitor, partial curve, poor fit].

Q: For `COC(=O)c1c(NC(=O)Cc2cccs2)sc2c1CCCC2`, which “activity change, negative = inhibition” value is on record?
A: The value was inactive: 0%.

Q: How did the Potency turn out when `CC(C)(C)CN1C(=O)C(=O)NC[C@@H]1Cc1ccc(O)cc1` was run?
A: Its Potency is inconclusive: 126 µM [inhibitor, single point].

Q: For `CC(C)C[C@H]1COc2cc(NCCO)ccc2S(=O)(=O)N1`, which Potency is on record?
A: Its Potency is inconclusive: 39.8 µM [inhibitor, partial curve, poor fit].

Q: How did the “activity change, negative = inhibition” value turn out when `CCOC(=O)/C(=N\Nc1ncnc2ccccc12)c1ccc(C)cc1` was run?
A: The value was inactive: -23.2%.

Q: How did the “activity change, negative = inhibition” value turn out when `Cc1cc(C(=O)CN2CCCCC2)c(C)n1-c1ccc(F)cc1` was run?
A: Its value is inactive: -9.21%.
